Drawing on patent US20210395322A1 (OSR, published 2021), this text covers binding for one molecule.

No constants are given. Whether binding was seen depends on the method and setting. Some entries that bind do so weakly or less than the wild type.

In test [1] the target is T1, Noggin (UniProt Q13253 28-232, limits assumed).
T1 sequence (looked up): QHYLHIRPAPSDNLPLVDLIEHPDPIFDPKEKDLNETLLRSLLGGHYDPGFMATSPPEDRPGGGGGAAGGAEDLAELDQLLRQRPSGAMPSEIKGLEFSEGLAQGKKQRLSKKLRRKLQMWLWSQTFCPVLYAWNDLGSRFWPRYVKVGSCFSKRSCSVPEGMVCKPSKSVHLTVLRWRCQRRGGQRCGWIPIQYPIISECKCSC
As to the kind of experiment: size-exclusion chromatography.

The target in test [2] is T1, Noggin. As to the kind of experiment: size-exclusion chromatography, shift in elution time of the Noggin-NAB204 complex.

B1: NAB204 (ligand)
chain: MQAKHKQRKRLKSSCKRHPLYVDFSDVGWNDWIIAPSGYHANYCDGECPFPLADHLNSTNHAIVQTLVNSVNSKIPKACCVPTKLRPMSMLYYDDGQNVVLKNYQNMIVEECGCS
As for B1, the binding entry with Noggin [1] and with Noggin [2] was “binds” in each case.
